Experimental data: PubChem BioAssay AID652243 (Drosophila RNAi Screening Center, 2013)

Purpose: 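Fly regulators of androgen-dependent reporter output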 (primary screen)
Cell system: Drosophila S2R+ cells
Reagents: long dsRNA against Drosophila genes
Time to read-out: 72 h (48 h, then 24 h hormone)
Conditions: synthetic androgen R1881 at 10 nM for 24 h
Detection: 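Firefly light from an androgen-responsive reporter and Renilla control light per well, raw and unnormalised, for each of two replicates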
Scale: firefly reporter light: higher = more light from androgen-responsive reporter; Renilla control light: higher = more constitutive control signal (cell number, transfection)
Call rule: 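Hit when the log firefly-to-Renilla ratio dropped or increased by a fixed fold versus the mean of GFP or LacZ controls across duplicate plates; lowering cut given as 1.5 and as 3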
Calls: active = hit: reporter lowered or raised; inactive = no hit
The screen tested about 24,000 reagents; shown is a random part of those that have a named target and a result. Of all reagents, 246 (1%) were called active. 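Plates not normalised; calls are printed but the firefly/Renilla ratio behind them is not deposited; fold cut for lowering reported inconsistently.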 Raw values vary from plate to plate and are shown uncorrected. A number with no mark means an inactive call. Names joined by + are all predicted targets of the reagent. Not given: the amount of reagent.

target	dsRNA	firefly reporter light, replicate 1	firefly reporter light, replicate 2	Renilla control light, replicate 1	Renilla control light, replicate 2
robo1 (roundabout 1)	DRSC04712	3.07e5	3.03e5	2.47e6	1.88e6
pnr (pannier)	DRSC17027	51056	77019	9.31e5	1.14e6
pnr (pannier)	DRSC25347	4.63e5	2.94e5	4.46e5	5.19e5
Helz (Helicase with zinc finger)	DRSC11072	1.03e6	8.18e5	2.33e6	1.93e6
hfp (half pint)	DRSC08731	36607	59793	6.23e5	8.55e5
hfp (half pint)	DRSC08732	1.03e5	1.56e5	9.37e5	1.27e6
hfp (half pint)	DRSC22408	4.82e5	8.65e5	1.64e6	2.40e6
hfp (half pint)	DRSC25143	4.92e5	4.40e5	6.01e5	6.62e5
CG8135 + BBIP1	DRSC12739	2.20e5	1.64e5	3.58e5	2.24e5
CG8135 + BBIP1	DRSC16384	94025	1.21e5	1.73e6	2.06e6
CG8135 + BBIP1	DRSC26052	2.64e5	2.57e5	8.21e5	5.53e5
CG13693	DRSC00362	1.39e5	1.43e5	6.90e5	1.29e6
CG13693	DRSC25981	4.08e5	2.52e5	8.55e5	5.20e5
bbx + waw	DRSC20575	51507	74207	4.83e5	5.61e5
bbx + waw	DRSC20589	1.86e5	1.97e5	6.63e5	5.59e5
Sans (Scaffold protein containing ankyrin repeats and SAM domain)	DRSC06357	8.06e5	8.71e5	1.14e6	1.39e6
Sans (Scaffold protein containing ankyrin repeats and SAM domain)	DRSC27928	6.09e5	5.03e5	1.55e6	1.46e6
lncRNA:CR31386 (long non-coding RNA:CR31386)	DRSC23186	7.95e5	7.88e5	1.47e6	1.27e6
lncRNA:CR31386 (long non-coding RNA:CR31386)	DRSC25849	5.18e5	3.38e5	7.93e5	7.57e5
CG6044	DRSC04522	2.41e5	2.12e5	1.74e6	1.79e6
Trf2 (TATA box binding protein-related factor 2)	DRSC18727	9.76e5	1.05e6	1.48e6	1.07e6
Trf2 (TATA box binding protein-related factor 2)	DRSC29152	1.53e6	1.10e6	4.56e5	4.35e5
Socs16D (Suppressor of Cytokine Signaling at 16D)	DRSC23165	8.92e5	1.04e6	1.77e6	2.13e6
Socs16D (Suppressor of Cytokine Signaling at 16D)	DRSC26838	5.48e5	3.87e5	4.73e5	2.84e5
CG34149	DRSC14537	71696	85371	6.27e5	6.18e5

Part of the list above, reformatted:
{"target":"pnr (pannier)","dsRNA":"DRSC17027","firefly reporter light, replicate 1":51056,"firefly reporter light, replicate 2":77019,"Renilla control light, replicate 1":9.31e5,"Renilla control light, replicate 2":1.14e6}
{"target":"pnr (pannier)","dsRNA":"DRSC25347","firefly reporter light, replicate 1":4.63e5,"firefly reporter light, replicate 2":2.94e5,"Renilla control light, replicate 1":4.46e5,"Renilla control light, replicate 2":5.19e5}
{"target":"Helz (Helicase with zinc finger)","dsRNA":"DRSC11072","firefly reporter light, replicate 1":1.03e6,"firefly reporter light, replicate 2":8.18e5,"Renilla control light, replicate 1":2.33e6,"Renilla control light, replicate 2":1.93e6}
{"target":"hfp (half pint)","dsRNA":"DRSC08731","firefly reporter light, replicate 1":36607,"firefly reporter light, replicate 2":59793,"Renilla control light, replicate 1":6.23e5,"Renilla control light, replicate 2":8.55e5}
{"target":"hfp (half pint)","dsRNA":"DRSC08732","firefly reporter light, replicate 1":1.03e5,"firefly reporter light, replicate 2":1.56e5,"Renilla control light, replicate 1":9.37e5,"Renilla control light, replicate 2":1.27e6}

More records:
target	dsRNA	firefly reporter light, replicate 1	firefly reporter light, replicate 2	Renilla control light, replicate 1	Renilla control light, replicate 2
CG13053	DRSC09934	2.12e5	2.53e5	2.71e6	1.98e6
CG10265	DRSC05986	1.18e6	9.44e5	2.59e6	2.48e6
CG10265	DRSC21680	7.12e5	5.70e5	3.00e6	2.05e6
CG15283	DRSC01980	1.59e5	1.97e5	1.84e6	2.34e6
CG12680	DRSC17871	2.20e5	2.06e5	2.04e6	2.04e6
Nab2 (Nuclear polyadenosine RNA-binding 2)	DRSC14158	88555	85407	5.24e5	6.74e5
Nab2 (Nuclear polyadenosine RNA-binding 2)	DRSC27135	3.11e5	1.99e5	6.76e5	3.19e5
loaf (lost and found)	DRSC09130	67469	70549	1.86e5	2.40e5
CG11883	DRSC06094	9.71e5	9.35e5	1.62e6	1.59e6
CG43066	DRSC06927	6.09e5	5.63e5	2.68e6	1.97e6
CG43066	DRSC26570	6.72e5	6.77e5	7.99e5	8.04e5
lsn (larsen)	DRSC16081	1.42e5	1.92e5	2.62e6	3.63e6
lsn (larsen)	DRSC25700	7.37e5	6.73e5	1.00e6	1.06e6
Dic61B (Dynein intermediate chain at 61B)	DRSC08588	8.67e5	7.67e5	9.96e5	7.09e5
Dic61B (Dynein intermediate chain at 61B)	DRSC27636	2.16e5	1.82e5	4.31e5	4.67e5
CG13894	DRSC23205	4.75e5	5.72e5	1.23e6	1.63e6
CG13894	DRSC29274	4.48e5	4.24e5	8.39e5	1.06e6
Dbct (Dihydrolipoamide branched chain transacylase E2)	DRSC19951	89699	89599	7.83e5	7.98e5
Dbct (Dihydrolipoamide branched chain transacylase E2)	DRSC25764	5.47e5	7.14e5	4.74e5	5.03e5
Vps13B (Vacuolar protein sorting 13B)	DRSC15060	2.44e5	1.56e5	2.04e6	2.01e6
VhaPPA1-1 (Vacuolar H[+] ATPase PPA1 subunit 1)	DRSC16170	64442	69719	4.95e5	5.06e5
VhaPPA1-1 (Vacuolar H[+] ATPase PPA1 subunit 1)	DRSC24144	2.48e5	3.19e5	8.66e5	5.14e5
CG17801	DRSC15273	43109	50425	6.71e5	7.23e5
unc-13	DRSC17192	7.08e5	7.10e5	8.93e5	4.12e5
unc-13	DRSC17193	8.88e5	5.60e5	1.20e6	4.77e5
unc-13	DRSC17223	71846	1.18e5	4.37e5	5.40e5
CG6724	DRSC02983	2.09e5	2.65e5	1.75e6	1.80e6
CG17726	DRSC15255	6.64e5	7.06e5	3.53e6	4.10e6
Tango1 (Transport and Golgi organization 1)	DRSC02127	1.33e6	9.15e5	1.66e6	1.20e6
Tango1 (Transport and Golgi organization 1)	DRSC27972	5.78e5	4.58e5	1.56e6	1.06e6
Mcm10 (Minichromosome maintenance 10)	DRSC03162	9.23e5	5.24e5	2.49e6	1.70e6
Mcm10 (Minichromosome maintenance 10)	DRSC27996	5.19e5	4.58e5	1.61e6	1.40e6
BORCS5 (BLOC-1 related complex subunit 5)	DRSC19427	1.08e5	1.15e5	1.01e6	9.30e5
BORCS5 (BLOC-1 related complex subunit 5)	DRSC26187	4.53e5	4.13e5	6.01e5	3.28e5
